# Experimental data reported in US20240166731A1.
# Amino acid sequences for entries named in this document (tags omitted). A change or cut given only in a name is not applied to a line headed by its entry.
# UniProt P10636: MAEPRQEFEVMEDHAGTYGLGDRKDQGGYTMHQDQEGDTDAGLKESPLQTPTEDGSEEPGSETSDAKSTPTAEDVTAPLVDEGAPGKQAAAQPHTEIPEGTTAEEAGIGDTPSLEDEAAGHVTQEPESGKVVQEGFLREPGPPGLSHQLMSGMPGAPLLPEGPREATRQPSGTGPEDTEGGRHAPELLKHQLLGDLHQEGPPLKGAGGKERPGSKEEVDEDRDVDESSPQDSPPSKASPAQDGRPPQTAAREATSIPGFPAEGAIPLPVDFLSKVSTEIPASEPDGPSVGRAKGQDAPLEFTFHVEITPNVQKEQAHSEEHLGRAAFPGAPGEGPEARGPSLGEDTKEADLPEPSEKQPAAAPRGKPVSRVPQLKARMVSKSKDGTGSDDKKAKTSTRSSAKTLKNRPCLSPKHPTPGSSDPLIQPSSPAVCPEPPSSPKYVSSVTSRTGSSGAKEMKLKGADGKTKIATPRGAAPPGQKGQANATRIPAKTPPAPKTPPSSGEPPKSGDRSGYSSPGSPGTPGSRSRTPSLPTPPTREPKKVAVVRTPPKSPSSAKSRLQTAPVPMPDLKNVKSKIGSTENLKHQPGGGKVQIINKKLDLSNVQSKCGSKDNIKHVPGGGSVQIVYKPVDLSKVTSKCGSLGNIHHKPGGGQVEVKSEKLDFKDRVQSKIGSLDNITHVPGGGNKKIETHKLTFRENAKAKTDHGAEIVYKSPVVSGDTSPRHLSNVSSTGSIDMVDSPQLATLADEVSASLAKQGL
# Changes are numbered by the printed parent chain. Results are given in words; binding and its absence hold for the method and conditions named. Some results given as binding are weak or reduced against the parent protein; the word gives no strength.
# B1: PT1B1142 (Fab, V domains shown)
# VH: QVQLVQSGAEVKKPGASVKVSCKASGYTFTSYWITWVRQRPGQGLEWMGDIHPGRGSTKYAQKLQGRVTMTTDTSTSTAYMELRSLRSDDTAVYYCARRWGFDYWGQGTLVTVSS
# VL: DIVMTQTPLSSPVTLGQPASISCRSSKSLLYKDGKTYLNWLQQRPGQPPRLLIYLMSTRASGVPDRFSGSGAGTDFTLKISRVEAEDVGVYYCQQLVDYPLTFGQGTKLEIK
# B2: PT1B585 (PT/66) (Fab, V domains shown)
# VH: QVQLQQPGAELVKPGASVKMSCKASGYTFTSYWITWVKQRPGQGLEWIGDIHPGRGSTKSNEKFKSKATLTVDTSSSTAYMQFSSLTSEDSAVYYCARRWGFDYWGQGTTLTVSS
# VL: DIVITQDELSNPVTSGESVSISCRSSKSLLYKDGKTYLNWFLQRPGQSPQLLIYLMSTRASGVSDRFSGSGSGTDFTLEISRVKAEDVGVYYCQQLVDYPLTFGAGTKLELK
# B3: PT1B635 (antibody, human IgG1, kappa, V domains shown)
# VH: B1 VH with R40A, M70L
# VL: DIVITQTPLSLPVTPGEPASISCRSSKSLLYKDGKTYLNWFLQKPGQSPQLLIYLMSTRASGVPDRFSGSGSGTDFTLKISRVEAEDVGVYYCQQLVDYPLTFGQGTKLEIKR
# B4: PT1B901 (antibody, human IgG1, kappa, V domains shown)
# VH: B1 VH with R40A, M70L
# VL: B3 VL with G34L
# Key:
# [1] = target: biotinylated full-length Tau protein (UniProt P10636); test: ELISA, biotinylated full-length Tau on plate, E. coli Fab supernatant, anti-Fab'2-HRP chemiluminescence
# [2] = target: biotinylated full-length Tau protein (UniProt P10636); test: ELISA, figure legend of FIG. 1
# [3] = target: biotinylated full-length Tau protein (UniProt P10636); test: ELISA: biotinylated full-length Tau immobilised at 0.039-2.5 ug/mL (x axis is the antigen concentration), Fab in E. coli supernatant, anti-Fab'2-HRP, chemiluminescence
# [4] = target: human full-length recombinant tau (2N4R) (human) (UniProt P10636); test: SPR, Biacore T200, mAb captured by anti-Fc, tau in solution
# [5] = target: human full-length recombinant tau (2N4R) (human) (UniProt P10636); test: SPR, single-cycle kinetics, antibody captured by anti-Fc, tau injected at 2.2, 6.7, 20 and 60 nM, 1:1 Langmuir fit
Binder,binding [1],binding [2],binding [3],binding [4],binding [5]
B1,binds,binds,binds,–,–
B2,binds,–,binds,–,–
B3,–,–,–,binds,binds
B4,–,–,–,binds,binds
